Reference: article PMC7817835
Like-named read-outs stand apart in the source and are kept apart here. No constants are given. Whether binding was seen depends on the method and setting. Some results given as binding are weak or reduced against the parent protein; the word gives no strength.

Amino acid sequences for entries named in this document (tags omitted).
UniProt Q39575: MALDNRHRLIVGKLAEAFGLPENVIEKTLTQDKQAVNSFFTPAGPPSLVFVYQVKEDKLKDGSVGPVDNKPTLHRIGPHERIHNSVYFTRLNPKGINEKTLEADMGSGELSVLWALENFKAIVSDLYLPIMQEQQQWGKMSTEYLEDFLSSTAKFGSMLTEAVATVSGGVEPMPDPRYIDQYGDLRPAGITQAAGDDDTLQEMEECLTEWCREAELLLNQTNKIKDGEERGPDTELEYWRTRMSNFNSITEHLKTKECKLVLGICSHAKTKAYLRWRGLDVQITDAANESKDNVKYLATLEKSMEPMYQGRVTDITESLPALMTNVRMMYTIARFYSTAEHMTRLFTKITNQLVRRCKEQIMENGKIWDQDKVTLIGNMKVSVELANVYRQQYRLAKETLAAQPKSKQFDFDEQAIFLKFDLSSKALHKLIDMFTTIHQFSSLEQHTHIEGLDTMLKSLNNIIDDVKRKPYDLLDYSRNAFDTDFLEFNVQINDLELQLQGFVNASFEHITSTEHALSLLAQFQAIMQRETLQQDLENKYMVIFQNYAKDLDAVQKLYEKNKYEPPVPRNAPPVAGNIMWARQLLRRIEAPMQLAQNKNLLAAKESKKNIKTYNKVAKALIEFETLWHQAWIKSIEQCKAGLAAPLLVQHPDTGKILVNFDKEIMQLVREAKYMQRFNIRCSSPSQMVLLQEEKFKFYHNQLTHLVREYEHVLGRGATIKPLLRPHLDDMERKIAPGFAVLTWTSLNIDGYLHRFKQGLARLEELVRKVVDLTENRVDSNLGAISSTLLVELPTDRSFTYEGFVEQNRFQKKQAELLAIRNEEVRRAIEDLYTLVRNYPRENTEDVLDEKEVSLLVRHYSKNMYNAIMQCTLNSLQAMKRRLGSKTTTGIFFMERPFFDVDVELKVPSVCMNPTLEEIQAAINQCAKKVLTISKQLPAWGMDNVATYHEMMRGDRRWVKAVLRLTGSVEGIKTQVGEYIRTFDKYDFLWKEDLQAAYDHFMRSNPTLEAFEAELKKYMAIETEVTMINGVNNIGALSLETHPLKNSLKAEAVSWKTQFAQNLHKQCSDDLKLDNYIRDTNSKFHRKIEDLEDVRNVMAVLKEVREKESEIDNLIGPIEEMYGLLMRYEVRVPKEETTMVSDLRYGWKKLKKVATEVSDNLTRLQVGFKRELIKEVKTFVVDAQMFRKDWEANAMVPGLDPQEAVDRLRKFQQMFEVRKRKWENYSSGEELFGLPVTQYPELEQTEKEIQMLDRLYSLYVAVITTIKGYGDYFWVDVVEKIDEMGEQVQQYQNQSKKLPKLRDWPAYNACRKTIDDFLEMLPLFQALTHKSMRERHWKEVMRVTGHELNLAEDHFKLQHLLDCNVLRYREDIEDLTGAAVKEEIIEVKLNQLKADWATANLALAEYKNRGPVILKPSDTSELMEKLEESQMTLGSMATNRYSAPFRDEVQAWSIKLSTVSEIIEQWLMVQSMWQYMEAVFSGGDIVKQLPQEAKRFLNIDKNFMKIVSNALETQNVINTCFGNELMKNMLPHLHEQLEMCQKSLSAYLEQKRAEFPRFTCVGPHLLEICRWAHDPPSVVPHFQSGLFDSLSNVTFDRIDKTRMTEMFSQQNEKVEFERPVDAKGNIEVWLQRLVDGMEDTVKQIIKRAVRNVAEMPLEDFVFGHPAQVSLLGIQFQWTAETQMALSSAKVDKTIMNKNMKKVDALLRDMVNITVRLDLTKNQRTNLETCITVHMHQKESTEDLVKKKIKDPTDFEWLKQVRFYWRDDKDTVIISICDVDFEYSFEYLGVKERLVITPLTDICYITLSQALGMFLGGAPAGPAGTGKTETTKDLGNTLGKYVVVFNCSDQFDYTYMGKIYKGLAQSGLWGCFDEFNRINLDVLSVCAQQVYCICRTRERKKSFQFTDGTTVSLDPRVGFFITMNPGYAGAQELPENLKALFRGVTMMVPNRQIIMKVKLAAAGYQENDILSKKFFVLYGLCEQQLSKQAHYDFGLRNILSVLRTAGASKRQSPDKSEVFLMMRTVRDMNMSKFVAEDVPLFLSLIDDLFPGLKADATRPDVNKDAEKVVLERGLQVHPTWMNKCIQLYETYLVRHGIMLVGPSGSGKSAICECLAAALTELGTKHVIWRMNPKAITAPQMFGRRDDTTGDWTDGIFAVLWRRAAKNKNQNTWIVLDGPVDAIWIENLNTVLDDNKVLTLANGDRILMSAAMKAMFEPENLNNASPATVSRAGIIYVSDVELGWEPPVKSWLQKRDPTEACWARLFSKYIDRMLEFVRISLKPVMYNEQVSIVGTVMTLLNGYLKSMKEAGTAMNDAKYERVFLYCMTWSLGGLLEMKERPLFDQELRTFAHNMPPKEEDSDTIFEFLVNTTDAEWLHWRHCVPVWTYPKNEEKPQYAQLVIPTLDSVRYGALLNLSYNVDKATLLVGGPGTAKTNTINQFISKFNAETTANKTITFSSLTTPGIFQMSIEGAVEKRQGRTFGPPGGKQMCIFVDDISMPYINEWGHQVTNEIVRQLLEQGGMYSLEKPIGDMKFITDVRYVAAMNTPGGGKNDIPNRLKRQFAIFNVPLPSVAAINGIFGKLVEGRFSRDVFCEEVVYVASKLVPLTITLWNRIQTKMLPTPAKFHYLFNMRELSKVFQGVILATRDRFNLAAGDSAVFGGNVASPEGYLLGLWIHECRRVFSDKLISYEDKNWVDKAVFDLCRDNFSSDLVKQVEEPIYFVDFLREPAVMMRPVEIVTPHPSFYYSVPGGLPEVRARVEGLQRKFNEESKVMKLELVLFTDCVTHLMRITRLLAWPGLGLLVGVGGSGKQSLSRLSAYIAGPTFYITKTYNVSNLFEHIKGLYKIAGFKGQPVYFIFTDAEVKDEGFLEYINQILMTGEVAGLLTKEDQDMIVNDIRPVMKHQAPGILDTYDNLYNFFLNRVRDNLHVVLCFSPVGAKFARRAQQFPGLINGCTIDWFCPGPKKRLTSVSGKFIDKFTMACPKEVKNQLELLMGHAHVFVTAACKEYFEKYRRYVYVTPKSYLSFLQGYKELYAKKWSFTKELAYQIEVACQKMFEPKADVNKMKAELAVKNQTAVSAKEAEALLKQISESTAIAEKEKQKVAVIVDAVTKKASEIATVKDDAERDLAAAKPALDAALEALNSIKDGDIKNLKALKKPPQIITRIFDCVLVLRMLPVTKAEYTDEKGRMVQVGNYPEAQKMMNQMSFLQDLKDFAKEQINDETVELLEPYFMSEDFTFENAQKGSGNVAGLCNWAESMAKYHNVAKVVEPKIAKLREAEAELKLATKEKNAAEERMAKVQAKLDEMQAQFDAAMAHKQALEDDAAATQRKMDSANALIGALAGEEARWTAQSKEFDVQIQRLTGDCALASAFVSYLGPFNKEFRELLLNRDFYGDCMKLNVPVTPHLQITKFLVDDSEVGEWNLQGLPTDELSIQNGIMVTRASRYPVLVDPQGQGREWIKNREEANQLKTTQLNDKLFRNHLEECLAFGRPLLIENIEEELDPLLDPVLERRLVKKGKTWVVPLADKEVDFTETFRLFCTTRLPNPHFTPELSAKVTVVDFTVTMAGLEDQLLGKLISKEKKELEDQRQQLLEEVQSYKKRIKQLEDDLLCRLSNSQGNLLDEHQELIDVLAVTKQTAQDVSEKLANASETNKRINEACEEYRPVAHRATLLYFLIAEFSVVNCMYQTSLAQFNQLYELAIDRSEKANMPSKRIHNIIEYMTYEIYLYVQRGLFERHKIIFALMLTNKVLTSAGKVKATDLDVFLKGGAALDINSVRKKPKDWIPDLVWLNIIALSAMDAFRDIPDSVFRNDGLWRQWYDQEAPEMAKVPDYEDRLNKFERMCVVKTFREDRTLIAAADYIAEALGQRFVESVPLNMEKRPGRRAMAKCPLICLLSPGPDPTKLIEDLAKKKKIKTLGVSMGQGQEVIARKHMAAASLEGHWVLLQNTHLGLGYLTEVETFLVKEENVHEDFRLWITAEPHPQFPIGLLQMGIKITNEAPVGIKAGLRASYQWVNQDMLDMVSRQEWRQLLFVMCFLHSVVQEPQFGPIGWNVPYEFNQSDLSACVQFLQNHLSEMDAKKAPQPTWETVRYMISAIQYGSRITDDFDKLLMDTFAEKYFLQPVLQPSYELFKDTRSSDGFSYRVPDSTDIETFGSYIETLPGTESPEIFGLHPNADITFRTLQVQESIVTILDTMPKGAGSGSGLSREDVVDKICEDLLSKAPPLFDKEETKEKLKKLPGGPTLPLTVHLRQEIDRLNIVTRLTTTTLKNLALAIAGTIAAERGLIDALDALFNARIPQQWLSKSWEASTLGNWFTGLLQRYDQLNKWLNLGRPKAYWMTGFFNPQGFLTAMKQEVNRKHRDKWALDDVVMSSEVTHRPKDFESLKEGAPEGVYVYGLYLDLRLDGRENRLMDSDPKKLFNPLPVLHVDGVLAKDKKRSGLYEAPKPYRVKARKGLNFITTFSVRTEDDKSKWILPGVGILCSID
UniProt O04387: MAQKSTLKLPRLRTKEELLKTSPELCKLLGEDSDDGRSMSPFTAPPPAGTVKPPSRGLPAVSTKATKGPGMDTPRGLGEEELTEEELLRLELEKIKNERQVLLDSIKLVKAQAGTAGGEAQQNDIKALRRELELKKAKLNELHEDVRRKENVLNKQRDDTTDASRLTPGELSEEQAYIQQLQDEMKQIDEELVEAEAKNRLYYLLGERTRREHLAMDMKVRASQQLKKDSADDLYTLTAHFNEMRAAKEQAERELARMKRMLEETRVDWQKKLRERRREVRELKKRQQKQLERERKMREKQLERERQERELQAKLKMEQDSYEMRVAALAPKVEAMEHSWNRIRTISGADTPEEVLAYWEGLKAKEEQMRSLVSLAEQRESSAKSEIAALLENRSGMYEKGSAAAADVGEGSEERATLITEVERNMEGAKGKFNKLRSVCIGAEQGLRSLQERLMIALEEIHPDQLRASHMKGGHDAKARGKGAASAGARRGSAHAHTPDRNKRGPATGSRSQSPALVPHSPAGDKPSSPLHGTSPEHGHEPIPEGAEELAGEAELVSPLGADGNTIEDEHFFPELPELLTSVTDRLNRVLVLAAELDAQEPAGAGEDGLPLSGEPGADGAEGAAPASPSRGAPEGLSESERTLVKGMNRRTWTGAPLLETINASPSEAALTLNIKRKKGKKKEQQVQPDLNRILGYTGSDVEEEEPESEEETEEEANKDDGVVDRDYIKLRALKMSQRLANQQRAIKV

B1: ODA docking complex subunit DC3 (calcium-binding) (protein, UniProt Q7Y0H2 1-184)
chain: MASAAARERYARKNEQNELERAFNTIDSKGDKKIDAEELTELFLRLGHKPKRGEVEDMIWEVDEDCDGCISLLEFQTLYTRCRDDKTGYEPRGLFNVVEFVMNDKNNQGFITLEEAMQIMYLRYGRAELDMQLEQVFGTADLNSGKILTLTEFLHCLHTNQVKQLLNRVTAKTYKAPPPPQKRK
B2: outer dynein arm intermediate chain IC2 (protein, UniProt P27766 1-567)
chain: MEIYHQYIKLRKQFGRFPKFGDEGSEMLADIRPNEDHGKEYIPRNPVTTVTQCVPEMSEHEANTNAVILVNKAMSHVEGGWPKDVDYTEAEHTIRYRKKVEKDEDYIRTVVQLGSSVEDLIKQNNAVDIYQEYFTNVTMDHTSEAPHVKTVTVFKDPNNIKRSASYVNWHPDGSVPKVVVAYSILQFQQQPAGMPLSSYIWDVNNPNTPEYEMVPTSQICCAKFNLKDNNLVGAGQYNGQLAYFDVRKGNGPVEATPIDISHRDPIYDFAWLQSKTGTECMTVSTDGNVLWWDLRKMNECVENMPLKEKNSETTVGGVCLEYDTNAGPTNFMVGTEQGQIFSCNRKAKNPVDRVKYVLSGHHGPIYGLRRNPFNSKYFLSIGDWTARVWVEDTAVKTPILTTKYHPTYLTGGTWSPSRPGVFFTIKMDGAMDVWDLYYKHNEPTLTVQVSDLALTAFAVQESGGTVAVGTSDGCTSVLQLSTGLSEASPAEKANINAMFERETTREKNLEKAIKEAKVKARKEQGRRDEVKDNVTEEQLKALEDEFFKTTDPAVGGGYGAGEGAAAE
B3: outer dynein arm intermediate chain IC1 (protein, UniProt Q39578 1-683)
chain: MPALSPAKKGTDKGKTGKKTGKQEQNAQDYIPPPPPMPGDEAFAMPIREIVKPDNQLWLSEADLNEEVAKMLTANNPAAPKNIVRFNMKDKVFKLEPMVEQTVVHYATDGWLLHKSSDEAKRQMDMEKMEQEASARFQADIDRASHEHKDHGDVEPPDDSRQLRNQFNFSERAAQTLNYPLRDRETFTEPPPTATVSGACTQWEIYDEYIKDLERQRIDEAMKSKGGKKAAAAARAAGAAHRQRNEHVPTLQSPTLMHSLGTLDRMVNQNMYEEVAMDFKYWDDASDAFRPGEGSLLPLWRFVSDKSKRRQVTSVCWNPLYDDMFAVGYGSYEFLKQASGLINIYSLKNPSHPEYTFHTESGVMCVHFHPEFANLLAVGCYDGSVLVYDVRLKKDEPIYQASVRTGKLNDPVWQIYWQPDDAQKSLQFVSISSDGAVNLWTLTKSELIPECLMKLRVVRAGETREEEDPNASGAAGGCCMDFCKMPGQESIYLVGTEEGAIHRCSKAYSSQYLSTYVSHHLAVYAVHWNNIHPSMFLSASCRLDHQAVGLCHDPKRAVMNFDLNDSIGDVSWAALQPTVFAAVTDDGRVHVFDLAQNKLLPLCSQKVVKKAKLTKLVFNPKHPIVLVGDDKGCVTSLKLSPNLRITSKPEKGQKFEDLEVAKLDGVVEIARKSDADLAKNAAH

Columns and labels:
Experiment in all cases: cryo-EM structure; single-particle cryo-EM of the native ODA on doublet microtubules of splayed C. reinhardtii axonemes (splayed with 10 mM Mg-ATP and 750 μM CaCl2 in HMDEKP; 250 μM free Ca2+); apo, post-powerstroke state
[1] = molecular target: outer dynein arm heavy chain β-HC (Chlamydomonas reinhardtii (endogenous in flagella, strain CC-1690)) (UniProt Q39565)
[2] = molecular target: outer dynein arm heavy chain γ-HC (Chlamydomonas reinhardtii (endogenous in flagella, strain CC-1690)) (UniProt Q39575)
[3] = molecular target: ODA docking complex subunit DC1 (Chlamydomonas reinhardtii (endogenous in flagella, strain CC-1690)) (UniProt O04387)
[4] = molecular target: outer dynein arm heavy chain γ-HC (Chlamydomonas reinhardtii (endogenous in flagella, strain CC-1690)) (UniProt Q39575); remark: listed apart in the source
[5] = molecular target: outer dynein arm heavy chain β-HC (Chlamydomonas reinhardtii (endogenous in flagella, strain CC-1690)) (UniProt Q39565); remark: listed apart in the source

Molecule | binding [1] | binding [2] | further results
outer dynein arm heavy chain α-HC (from UniProt Q39610 1-4499) | binds | – | –
outer dynein arm heavy chain γ-HC (from UniProt Q39575 1-4485) | – | binds | –
ODA docking complex subunit DC1 (from UniProt O04387 1-749) | binds | binds | –
outer dynein arm heavy chain β-HC (from UniProt Q39565 1-4568) | binds | binds | –
B1 | – | – | binding [3]: binds; binding [4]: binds
B2 | – | – | binding [5]: binds
B3 | – | – | binding [5]: binds; binding [4]: binds
